Measured data: PubChem BioAssay AID1259424 (University of Nebraska Medical Center, 2018)

Assay: 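Rank knockdowns across the genome by resemblance to the KSR1 depletion profile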 (primary screen)
System: human HCT116 colon cancer cells
Reagents: siRNA pool against human genes, 50 nM
Measurement: 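Six signature mRNAs by branched-DNA multiplex assay, scaled to two housekeeping genes and non-targeting median, log2; matched to mean KSR1 knockdown profile by Pearson correlation and euclidean distance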
Direction: mean correlation with KSR1 profile: higher = expression change more like KSR1 knockdown
This is a random part of about 14,000 deposited reagents. 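Higher correlation or smaller distance means closer resemblance to KSR1 loss; control wells, including KSR1 knockdowns, recur on many plates.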 Not all columns of the deposit are shown. Not given: the time to read-out.

Target gene | mean correlation with KSR1 profile
PCTP (phosphatidylcholine transfer protein) | -0.458
LILRB1 (leukocyte immunoglobulin like receptor B1) | -0.128
SRPK1 (SRSF protein kinase 1) | 0.182
DTWD1 (DTW motif tRNA-uridine aminocarboxypropyltransferase 1) | -0.475
TRIM55 (tripartite motif containing 55) | 0.0541
HOXA10 (homeobox A10) | 0.482
ZNF354A (zinc finger protein 354A) | -0.437
EIF3L (eukaryotic translation initiation factor 3 subunit L) | -0.511
TCTA (T cell leukemia translocation altered) | -0.312
LIG1 (DNA ligase 1) | -0.00368
EXO5 (exonuclease 5) | -0.291
COLGALT2 (collagen beta(1-O)galactosyltransferase 2) | -0.52
RNPEP (arginyl aminopeptidase) | 0.488
PIK3C3 (phosphatidylinositol 3-kinase catalytic subunit type 3) | 0.171
NXPE4 (neurexophilin and PC-esterase domain family member 4) | -0.395
EXOSC1 (exosome component 1) | -0.353
NFS1 (NFS1 cysteine desulfurase) | 0.591
ZNF562 (zinc finger protein 562) | -0.071
ADIPOR2 (adiponectin receptor 2) | -0.612
CPOX (coproporphyrinogen oxidase) | 0.472

Reformatted: results already given
{"Target gene": "ZNF562 (zinc finger protein 562)", "mean correlation with KSR1 profile": -0.071}
{"Target gene": "ADIPOR2 (adiponectin receptor 2)", "mean correlation with KSR1 profile": -0.612}
